Data published in PMC11635738.
Results are given in words; binding and its absence hold for the method and conditions named. Binding seen in cells or lysates may run through a third protein. Binding can be weak; no strength is given. Tags and fused reporters may be left off the sequences shown.

Target: T1, FLAG full-length SREBF1 (pcDNA3.1-FLAG-Srebf1) (mouse) (UniProt Q9WTN3)
T1 sequence: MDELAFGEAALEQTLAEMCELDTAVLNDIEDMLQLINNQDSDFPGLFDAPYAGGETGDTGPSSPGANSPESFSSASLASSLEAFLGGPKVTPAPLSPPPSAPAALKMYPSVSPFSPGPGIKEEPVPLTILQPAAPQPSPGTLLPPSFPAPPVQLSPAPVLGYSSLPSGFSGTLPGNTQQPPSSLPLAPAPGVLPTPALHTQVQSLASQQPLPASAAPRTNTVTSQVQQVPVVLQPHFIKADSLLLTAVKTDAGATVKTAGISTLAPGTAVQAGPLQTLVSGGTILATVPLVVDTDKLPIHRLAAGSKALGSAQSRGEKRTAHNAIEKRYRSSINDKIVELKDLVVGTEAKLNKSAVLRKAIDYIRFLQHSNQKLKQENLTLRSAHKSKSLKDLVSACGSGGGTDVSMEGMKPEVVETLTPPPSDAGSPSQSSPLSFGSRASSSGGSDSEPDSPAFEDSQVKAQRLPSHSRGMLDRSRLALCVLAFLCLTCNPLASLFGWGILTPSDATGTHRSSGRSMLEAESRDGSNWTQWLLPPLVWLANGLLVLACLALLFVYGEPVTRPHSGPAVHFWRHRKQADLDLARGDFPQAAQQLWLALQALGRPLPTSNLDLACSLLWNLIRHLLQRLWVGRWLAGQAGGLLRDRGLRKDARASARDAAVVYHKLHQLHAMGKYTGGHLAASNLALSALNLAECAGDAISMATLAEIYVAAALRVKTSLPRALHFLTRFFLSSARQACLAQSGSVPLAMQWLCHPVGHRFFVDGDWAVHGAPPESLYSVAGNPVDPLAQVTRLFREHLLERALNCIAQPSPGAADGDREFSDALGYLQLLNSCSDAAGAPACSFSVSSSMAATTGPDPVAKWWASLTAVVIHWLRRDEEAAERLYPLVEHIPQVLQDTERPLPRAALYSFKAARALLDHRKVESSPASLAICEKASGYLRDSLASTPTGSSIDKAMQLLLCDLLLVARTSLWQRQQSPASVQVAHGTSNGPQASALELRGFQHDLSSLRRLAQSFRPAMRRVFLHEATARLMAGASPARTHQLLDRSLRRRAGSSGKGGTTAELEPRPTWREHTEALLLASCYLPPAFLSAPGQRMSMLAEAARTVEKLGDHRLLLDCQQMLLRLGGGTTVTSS
Assay: co-IP; HEK293T cells transfected with FLAG-Srebf1 (full length) and/or 2xMyc-SCAP together with V5-Armc5 and PA-Insig1; lysis in TNE buffer; anti-FLAG M2 Affinity Gel; elution with FLAG peptide; Western blot

Q: How did the binding turn out when “2xMyc-SCAP (pcDNA3.1/Hygro(+)-2xMyc-SCAP)” was run?
A: The binding was “binds”.
